Experimental findings from US12590062B2, “PD-1/PD-L1 inhibitors” (Gilead Sciences, Inc., priority 2017, dated 2026) are described below.

Sequences of proteins named here, by UniProt entry; tags and fusion partners are left off. Residues count along the entry.
UniProt Q9NZQ7, 19-290 limits assumed: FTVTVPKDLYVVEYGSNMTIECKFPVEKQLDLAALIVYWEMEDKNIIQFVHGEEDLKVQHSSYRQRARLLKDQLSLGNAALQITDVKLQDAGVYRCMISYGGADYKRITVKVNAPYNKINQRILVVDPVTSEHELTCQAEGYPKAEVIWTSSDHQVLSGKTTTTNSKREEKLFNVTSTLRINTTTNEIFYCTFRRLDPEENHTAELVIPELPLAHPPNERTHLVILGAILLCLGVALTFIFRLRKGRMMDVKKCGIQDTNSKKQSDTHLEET

The target in the experiment is PD-1/PD-L1 interaction (Homo sapiens, UniProt Q9NZQ7). Description: PD-1/PD-L1 NFAT reporter co-culture assay. The following applies: read-out: EC50 NFAT Luciferase; Jurkat PD-1 NFAT-luciferase cells co-cultured with aAPC-PD-L1 CHO cells, 6 hrs at 37° C. As for the experimental part: PD-1/PD-L1 NEAT Reporter Assay:
Compounds were tested in afunctional co-culture reporter assay in which TCR-mediated NFAT activity is inhibited by the engagement of PD-1 with PD-L1. […] CHO cells expressing surface-bound anti-CD3 antibodies and PD-L1 (artificial antigen presenting cells, aAPC-PD-L1) were first seeded overnight. Jurkat cells overexpressing PD-1 and expressing a luciferase construct under NFAT control are diluted in RPMI assay medium (RPMI 1640 with 2% FBS), mixed with compounds, and immediately seeded on the monolayer of aAPC-PD-L1. The co-culture is then incubated for 6 hrs at 37° C. Luciferase activity is assessed by adding the ONE-Glo reagent and measuring luminescence with a plate reader. EC50 values are calculated from the fit of the dose-response curves to a four-parameter equation (Table 3).

The structures given here were assigned with low confidence; some may be wrong. A value given as a limit tells only on which side of the number the result lay.

In general, EC50 refers to the concentration at which the effect is half-maximal. With `COc1nc(OCc2cccc(-c3cccc(COc4nc(OC)c(CNC5CCCCC5C(=O)O)cc4Cl)c3C)c2C)c(Cl)cc1CNC1CCCCC1C(=O)O` (racemic), the EC50 was ≥ 50 µM.
